In the series the target is T1, Ssd1 ΔN338 (Saccharomyces cerevisiae (S288C/BY4741 background)) (UniProt P24276).
T1 sequence (looked up): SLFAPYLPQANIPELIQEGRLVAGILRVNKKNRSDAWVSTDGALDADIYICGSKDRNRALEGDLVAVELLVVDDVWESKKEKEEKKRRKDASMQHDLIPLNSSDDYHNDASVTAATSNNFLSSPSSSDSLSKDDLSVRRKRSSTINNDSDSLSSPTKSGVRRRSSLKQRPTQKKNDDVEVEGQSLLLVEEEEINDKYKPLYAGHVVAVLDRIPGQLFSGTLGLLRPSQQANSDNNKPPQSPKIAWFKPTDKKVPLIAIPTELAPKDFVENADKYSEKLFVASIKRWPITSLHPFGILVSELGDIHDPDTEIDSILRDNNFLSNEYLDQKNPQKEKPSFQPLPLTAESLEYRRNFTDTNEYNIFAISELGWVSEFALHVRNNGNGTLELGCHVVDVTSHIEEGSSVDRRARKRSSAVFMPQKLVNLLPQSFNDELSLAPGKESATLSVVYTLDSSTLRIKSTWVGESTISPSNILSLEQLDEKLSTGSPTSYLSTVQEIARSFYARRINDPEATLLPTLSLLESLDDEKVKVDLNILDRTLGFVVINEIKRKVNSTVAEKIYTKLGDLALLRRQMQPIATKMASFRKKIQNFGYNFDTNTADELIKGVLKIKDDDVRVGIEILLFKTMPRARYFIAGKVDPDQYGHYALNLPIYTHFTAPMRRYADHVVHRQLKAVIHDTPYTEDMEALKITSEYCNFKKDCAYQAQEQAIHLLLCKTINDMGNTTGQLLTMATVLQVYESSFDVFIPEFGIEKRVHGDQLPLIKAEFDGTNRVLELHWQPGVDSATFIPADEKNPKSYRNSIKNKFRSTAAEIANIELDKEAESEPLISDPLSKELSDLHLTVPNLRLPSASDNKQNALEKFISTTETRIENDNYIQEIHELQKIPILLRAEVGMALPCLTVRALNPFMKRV
In words: EMSA. Conditions: 5 mM Mg acetate, barely detectable, EMSA: 0.5 uM RNA, 20 mM HEPES pH 7.5, 150 mM K acetate, 1 h on ice, gel at 4 C, recombinant protein, residues 339-1250, protein details: His tag cleaved with 3C protease, label: 5'-DY681 (EMSA), 5'-Cy3 (anisotropy). In general terms: Mobility shift assays separate free from complexed probe on a gel.

The comparison behind a weaker result is the experiment's own reference, which may not be listed here. Protein sequences can lack the tags named with them.

AUUUUCACUCCUUUAA [SEE-15mer]: the binding result is on record as “binds more weakly”.

The values are drawn from paper PMC8934651, “Yeast Ssd1 is a non-enzymatic member of the RNase II family with an alternative RNA recognition site”.
